PubChem BioAssay AID1508597 – Cure First – 2020
Assay: 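Survival screen with siRNA in ovarian cancer cells derived from patients, with or without rucaparib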 (primary screen). Cell system: human ovarian carcinoma lines grown from tumours: OCI-P5x (papillary serous) and OCI-C5x (clear cell). Reagents: siRNA pool against human genes, 1.25 pmol siRNA per well. Duration: 72 h or 96 h, depending on the cell culture. Challenge: rucaparib 20 µM (about IC30) or vehicle, present until read-out. Rucaparib or vehicle: Vehicle. Cell line: OCI-C5x (clear cell). Measured: 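Luminescent ATP-based viability assay read 72 or 96 h after transfection, depending on culture, given as normalised percent viability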. Reading the numbers: viability, normalised: higher = more viable cells remaining. Rule for the call: 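a well counts as a hit if its normalised viability is under 80 percent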. Calls: active = viability under 80%; inactive = viability 80% or more.
This is a random part of the about 2,100 reagents, in one setting of the screen. 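Calls flag viability under 80% in either arm, not effects specific to rucaparib; the reference for percent is not stated.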 Not stated in the record: the 100% reference.

What is on record for MRGBP, technical replicate 1?
viability, normalised (%): 26.5; outcome: active

With MRGBP, technical replicate 2, what was measured?
viability, normalised (%): 46.8; outcome: active

For MRGBP, technical replicate 3, what was measured?
viability, normalised (%): 47.5; outcome: active

How did the screen score EYA1, technical replicate 1?
viability, normalised (%): 41.4; outcome: active

With EYA1, technical replicate 2, what does the deposit list?
viability, normalised (%): 38.3; outcome: active

With EYA1, technical replicate 3, how do the results read?
viability, normalised (%): 56.3; outcome: active

For G2E3, technical replicate 1, how do the results read?
viability, normalised (%): 43; outcome: active

What did the screen give for G2E3, technical replicate 2?
viability, normalised (%): 66.2; outcome: active

With G2E3, technical replicate 3, what does the deposit list?
viability, normalised (%): 50.4; outcome: active

What is on record for PIK3C3, technical replicate 1?
viability, normalised (%): 66; outcome: active

What is on record for PIK3C3, technical replicate 2?
viability, normalised (%): 56.6; outcome: active

How did the screen score PIK3C3, technical replicate 3?
viability, normalised (%): 69.7; outcome: active

An excerpt taken from the entries so far, for reference:
MRGBP, technical replicate 2: viability, normalised (%) = 46.8; outcome = active
MRGBP, technical replicate 3: viability, normalised (%) = 47.5; outcome = active
